{"source": "paper PMC5258789", "binders": {"B1": {"name": "odorant receptor OR51E1 (receptor, UniProt Q8TCB6 1-318)", "chain": "MMVDPNGNESSATYFILIGLPGLEEAQFWLAFPLCSLYLIAVLGNLTIIYIVRTEHSLHEPMYIFLCMLSGIDILISTSSMPKMLAIFWFNSTTIQFDACLLQMFAIHSLSGMESTVLLAMAFDRYVAICHPLRHATVLTLPRVTKIGVAAVVRGAALMAPLPVFIKQLPFCRSNILSHSYCLHQDVMKLACDDIRVNVVYGLIVIISAIGLDSLLISFSYLLILKTVLGLTREAQAKAFGTCVSHVCAVFIFYVPFIGLSMVHRFSKRRDSPLPVILANIYLLVPPVLNPIVYGVKTKEIRQRILRLFHVATHASEP"}}, "molecular_target": "odorant receptor OR51E1 (human (endogenous in heart tissue)) (UniProt Q8TCB6)", "assay": "SDS-PAGE and western blot; lysates of left ventricle and septum of explanted human heart, blotted with anti-OR51E1 antibody; bands of monomer (35 kDa) and dimer (70 kDa)", "note": "No constants are given. Whether binding was seen depends on the method and setting. Some entries that bind do so weakly or less than the wild type.", "data": [{"binder": "B1", "values": [{"measurement": "binding", "value": "binds"}]}]}
